The values below come from patent US6528295.

The chains behind the UniProt entries cited, without tags or fusion partners. Where a name states a change or a piece, a line headed by the entry shows the natural chain unless it says otherwise. A line that says so, or that is headed by a name, gives the form on record, which may keep a tag or linker.
HA-tagged PP2A C subunit double mutant H59Q/301Stop (P67775, form named): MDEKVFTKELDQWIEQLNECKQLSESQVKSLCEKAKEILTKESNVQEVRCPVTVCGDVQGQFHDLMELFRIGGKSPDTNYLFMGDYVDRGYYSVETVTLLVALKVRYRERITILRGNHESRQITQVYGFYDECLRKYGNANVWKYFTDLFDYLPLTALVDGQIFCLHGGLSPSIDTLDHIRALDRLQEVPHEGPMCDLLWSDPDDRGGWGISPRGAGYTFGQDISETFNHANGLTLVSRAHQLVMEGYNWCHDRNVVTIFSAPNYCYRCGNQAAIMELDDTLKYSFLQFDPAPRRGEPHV

The target of test [1] is T1, Protein Phosphatase Methylesterase-1 (PME-1), endogenous protein of NIH3T3 cells (mouse) (UniProt Q8BVQ5).
T1 sequence (looked up): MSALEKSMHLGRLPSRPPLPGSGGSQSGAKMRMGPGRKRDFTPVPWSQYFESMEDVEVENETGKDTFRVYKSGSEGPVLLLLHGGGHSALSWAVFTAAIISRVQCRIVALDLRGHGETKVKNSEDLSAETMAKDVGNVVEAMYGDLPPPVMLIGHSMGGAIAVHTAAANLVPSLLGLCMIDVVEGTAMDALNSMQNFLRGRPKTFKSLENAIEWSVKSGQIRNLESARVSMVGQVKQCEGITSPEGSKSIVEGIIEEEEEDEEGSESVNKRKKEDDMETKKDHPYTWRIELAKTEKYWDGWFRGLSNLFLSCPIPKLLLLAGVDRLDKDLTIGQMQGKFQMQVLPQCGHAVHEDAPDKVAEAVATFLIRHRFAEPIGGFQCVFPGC
Nature of the test: co-immunoprecipitation.

Test [2] addresses T1, Protein Phosphatase Methylesterase-1 (PME-1), endogenous protein of NIH3T3 cells (mouse). Kind of test: anti-HA co-immunoprecipitation, immunoblot.

Results are given in words; binding and its absence hold for the method and conditions named. In cells and extracts the contact can be indirect. Some entries that bind do so weakly or less than the wild type.

“HA-tagged PP2A C subunit double mutant H59Q/301Stop (from UniProt P67775 1-300) (enzyme)”: the binding entry in test [1] and in test [2] was “binds” throughout.
